Laboratory results reported in ChEMBL document CHEMBL1151052, “Semi-synthetic qualestatins: Squalene synthase inhibition and antifungal activity. The SAR of C6 and C7 modifications” (Bioorg Med Chem Lett, 1993).

Molecular target: T1, Squalene synthase (Rattus norvegicus, UniProt Q02769)
T1 sequence (Q02769 whole entry): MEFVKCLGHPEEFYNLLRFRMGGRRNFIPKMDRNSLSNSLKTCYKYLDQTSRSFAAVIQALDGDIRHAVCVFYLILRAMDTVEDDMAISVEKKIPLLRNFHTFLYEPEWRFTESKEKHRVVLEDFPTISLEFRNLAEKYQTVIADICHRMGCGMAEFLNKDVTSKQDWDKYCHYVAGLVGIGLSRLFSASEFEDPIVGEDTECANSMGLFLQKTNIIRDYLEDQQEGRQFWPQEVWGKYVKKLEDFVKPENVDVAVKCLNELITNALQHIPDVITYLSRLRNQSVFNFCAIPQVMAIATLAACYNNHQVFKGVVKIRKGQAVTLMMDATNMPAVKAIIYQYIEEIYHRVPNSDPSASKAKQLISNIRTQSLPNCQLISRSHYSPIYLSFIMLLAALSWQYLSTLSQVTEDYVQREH
Assay: Inhibition of rat liver squalene synthase(SQS)

IC50: 6 nM
SMILES: C=C(CC[C@]12O[C@H](C(=O)O)[C@@](O)(C(=O)O)[C@](C(=O)O)(O1)[C@H](O)[C@H]2O)[C@@H](OC(C)=O)[C@H](C)Cc1ccccc1
